For two substances, binding results are on record in PMC5503580.

By UniProt entry, the sequences of proteins in these tests, tags left out. Residues count along the entry.
UniProt P35968, residues 20-1356: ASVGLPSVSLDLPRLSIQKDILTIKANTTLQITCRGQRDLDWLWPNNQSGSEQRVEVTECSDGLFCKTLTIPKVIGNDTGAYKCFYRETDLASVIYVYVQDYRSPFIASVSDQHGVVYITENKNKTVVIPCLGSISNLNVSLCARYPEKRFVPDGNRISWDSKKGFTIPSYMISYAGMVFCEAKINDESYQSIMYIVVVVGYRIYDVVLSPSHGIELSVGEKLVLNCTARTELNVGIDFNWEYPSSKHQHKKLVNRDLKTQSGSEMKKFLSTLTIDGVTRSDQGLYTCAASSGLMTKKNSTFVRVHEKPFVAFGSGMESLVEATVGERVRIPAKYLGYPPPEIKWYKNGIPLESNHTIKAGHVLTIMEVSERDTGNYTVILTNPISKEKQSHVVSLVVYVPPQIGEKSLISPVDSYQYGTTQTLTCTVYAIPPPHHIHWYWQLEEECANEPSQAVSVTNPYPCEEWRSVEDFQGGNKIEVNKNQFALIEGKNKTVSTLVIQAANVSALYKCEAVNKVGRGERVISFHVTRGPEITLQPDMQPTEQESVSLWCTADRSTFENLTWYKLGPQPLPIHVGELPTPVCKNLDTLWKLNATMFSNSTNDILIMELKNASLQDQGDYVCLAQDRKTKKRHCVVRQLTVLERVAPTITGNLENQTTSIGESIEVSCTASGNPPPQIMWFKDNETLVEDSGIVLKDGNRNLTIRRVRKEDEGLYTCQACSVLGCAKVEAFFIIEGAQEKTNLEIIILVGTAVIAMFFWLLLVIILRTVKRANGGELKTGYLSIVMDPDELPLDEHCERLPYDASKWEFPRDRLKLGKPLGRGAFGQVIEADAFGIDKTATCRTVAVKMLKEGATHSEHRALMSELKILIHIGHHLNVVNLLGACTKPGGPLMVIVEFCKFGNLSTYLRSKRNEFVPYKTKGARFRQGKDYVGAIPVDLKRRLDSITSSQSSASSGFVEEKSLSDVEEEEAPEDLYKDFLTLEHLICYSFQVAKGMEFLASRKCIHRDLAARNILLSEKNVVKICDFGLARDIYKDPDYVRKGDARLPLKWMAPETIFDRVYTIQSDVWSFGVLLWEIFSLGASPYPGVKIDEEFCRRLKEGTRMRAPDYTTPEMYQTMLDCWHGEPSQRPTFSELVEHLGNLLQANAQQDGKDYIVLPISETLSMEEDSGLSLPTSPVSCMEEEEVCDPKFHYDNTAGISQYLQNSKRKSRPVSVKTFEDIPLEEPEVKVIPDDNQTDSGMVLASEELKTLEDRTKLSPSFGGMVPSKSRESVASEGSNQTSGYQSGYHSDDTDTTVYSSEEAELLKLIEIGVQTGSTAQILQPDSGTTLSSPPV
UniProt P52799, residues 28-333: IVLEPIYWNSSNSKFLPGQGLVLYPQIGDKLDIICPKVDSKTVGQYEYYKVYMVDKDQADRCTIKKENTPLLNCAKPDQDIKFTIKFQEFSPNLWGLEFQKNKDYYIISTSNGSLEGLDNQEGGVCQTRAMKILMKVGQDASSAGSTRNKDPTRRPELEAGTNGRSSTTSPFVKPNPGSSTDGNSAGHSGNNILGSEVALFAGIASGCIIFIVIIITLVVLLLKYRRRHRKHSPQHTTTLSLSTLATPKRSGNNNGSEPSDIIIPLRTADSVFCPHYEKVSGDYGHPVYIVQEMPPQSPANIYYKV
UniProt O00560: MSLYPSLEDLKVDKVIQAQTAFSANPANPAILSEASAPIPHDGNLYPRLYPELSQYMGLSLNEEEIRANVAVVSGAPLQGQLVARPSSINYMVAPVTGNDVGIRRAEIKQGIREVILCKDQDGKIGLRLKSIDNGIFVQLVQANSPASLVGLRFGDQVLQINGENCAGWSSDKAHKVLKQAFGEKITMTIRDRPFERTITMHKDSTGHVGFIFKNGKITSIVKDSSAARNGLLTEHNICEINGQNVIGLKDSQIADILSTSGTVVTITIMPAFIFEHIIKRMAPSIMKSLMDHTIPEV

No constants are given. Whether binding was seen depends on the method and setting. In cells and extracts the contact can be indirect. Some binding calls cover weakened binding; strength is not graded here.

Test [1] deals with VEGFR2 (transfected, pCMV-HA construct) (UniProt P35968). Briefly: co-IP; HEK293 cells transfected with VEGFR2 and Flag-syntenin; whole cell lysates immunoprecipitated with Flag or VEGFR2 antibody and protein A/G agarose; lysis buffer 50 mM Tris-HCl pH 7.4, 150 mM NaCl, 1 mM EDTA, 5 mM sodium orthovanadate, 1% NP-40.
For test [2], the target named is VEGFR2 (endogenous, HUVEC) (human (endogenous in HUVEC)) (UniProt P35968). Put plainly: co-IP; endogenous proteins in HUVEC whole cell lysates (untransfected, control siRNA or ephrin-B2 siRNA); immunoprecipitated with VEGFR2, ephrin-B2 or syntenin antibody and protein A/G agarose; lysis buffer 50 mM Tris-HCl pH 7.4, 150 mM NaCl, 1 mM EDTA, 5 mM sodium orthovanadate, 1% NP-40.

The target in test [3] is ephrin-B2 (endogenous, HUVEC) (human (endogenous in HUVEC)) (UniProt P52799). The description is as above.

For “Flag-syntenin (from UniProt O00560 1-298)”, in test [1], the binding entry is given as “binds”.
As to “syntenin (endogenous, HUVEC) (from UniProt O00560 1-298)”, the binding result in test [2] and in test [3] was “binds” each time.
